{"source": "the supplement of paper PMC5949888", "note": "Most values lie at the floor of the assay. Slopes are relative: functional sequences can read slightly below zero.", "data": [{"tested_on": "Saccharomyces cerevisiae PS128 hsf1 delta, HSF1(1-493) fusion", "test": "growth estimate (transactivation domain function in HSF1 fusion, heat-shock survival) (a.u. (slope of normalised read count over time)); higher = stronger growth at 37°C, i.e. more transactivation activity", "conditions": "library: random library", "values": [{"substance": "GKEGAVKQPILQQFEPLNSH", "growth estimate": "< -0.25"}, {"substance": "KGRSETRPFQRMSYSARLHP", "growth estimate": "< -0.25"}, {"substance": "ELAL", "growth estimate": "< -0.25"}, {"substance": "RTRFQNAEQGLIAWTTAGQD", "growth estimate": "< -0.25"}, {"substance": "VPM", "growth estimate": "< -0.25"}, {"substance": "NCEGYHINRSSFVNQPVHRN", "growth estimate": "< -0.25"}, {"substance": "LVIEPFYWITSGQHSH", "growth estimate": "< -0.25"}, {"substance": "CKQPQRACPTWKSAEAV", "growth estimate": "< -0.25"}, {"substance": "ISITLA", "growth estimate": "< -0.25"}, {"substance": "SGSAGLESLH", "growth estimate": "< -0.25"}, {"substance": "TGAVVGIRSWLNGPPEGVGC", "growth estimate": "< -0.25"}, {"substance": "YAANPDRLGDRRKSSKHDQD", "growth estimate": "< -0.25"}, {"substance": "VRCMGCPPWTLCRG", "growth estimate": -0.229}, {"substance": "TRRAWAYQQ", "growth estimate": "< -0.25"}, {"substance": "LSCHACR", "growth estimate": "< -0.25"}, {"substance": "SVMF", "growth estimate": "< -0.25"}, {"substance": "RVNYVRELLVV", "growth estimate": "< -0.25"}, {"substance": "AVRFRESRVGH", "growth estimate": "< -0.251"}, {"substance": "LVPVSRDSQLTSTI", "growth estimate": -0.149}, {"substance": "HKDHQVVK", "growth estimate": "< -0.25"}, {"substance": "MLADGLGRRGLQLNTTVGHG", "growth estimate": "< -0.25"}, {"substance": "LSEPWYAEKFPTLTVSGKPN", "growth estimate": "< -0.25"}, {"substance": "NASYIIRRPQHRQLVQAGAP", "growth estimate": "< -0.25"}, {"substance": "INTRWERIGR", "growth estimate": -0.243}, {"substance": "TRHFTAMRLVPWKLTAERRA", "growth estimate": "< -0.25"}, {"substance": "PGEKWTRT", "growth estimate": "< -0.25"}, {"substance": "ESTGERIAGKNELHLG", "growth estimate": "< -0.25"}, {"substance": "PVNEQ", "growth estimate": "< -0.25"}, {"substance": "GICWISYRKAEAYIDFACVH", "growth estimate": "< -0.25"}, {"substance": "PVPWHW", "growth estimate": "< -0.25"}, {"substance": "CVSRSKVQ", "growth estimate": -0.226}, {"substance": "GLGSCT", "growth estimate": "< -0.25"}, {"substance": "VRVQPVAPRLGAVSNTGTPS", "growth estimate": "< -0.25"}, {"substance": "NIVISVSVDINPVLRLAVGP", "growth estimate": "< -0.25"}, {"substance": "RRSFRGVGGNTPTKWLFGAE", "growth estimate": "< -0.25"}, {"substance": "FGNGGLIFDAVHGWVLIPLE", "growth estimate": "< -0.25"}, {"substance": "PVPPLAPLQTIMLENRTNMG", "growth estimate": -0.13}, {"substance": "GEPSHPLLLARRQAGRTGSC", "growth estimate": "< -0.25"}, {"substance": "MKLQRGDVESW", "growth estimate": "< -0.25"}, {"substance": "IRGRALLEWQ", "growth estimate": "< -0.25"}, {"substance": "REARGGSIYMRGSTRLLAGG", "growth estimate": "< -0.25"}, {"substance": "HECVSHSSGARNPRIRSDLP", "growth estimate": "< -0.25"}, {"substance": "CKRNATRRTGITQRNRPGTN", "growth estimate": "< -0.25"}, {"substance": "FSSPFESLTPGSIRYFFRRR", "growth estimate": "< -0.25"}, {"substance": "RTMSLL", "growth estimate": "< -0.25"}, {"substance": "WMGRFRMPMYQTKFYKGGRP", "growth estimate": "< -0.25"}, {"substance": "PTGRA", "growth estimate": "< -0.25"}, {"substance": "LSRCQVIQRWPVVVLVLVGN", "growth estimate": "< -0.25"}, {"substance": "QNHRCSRVALPRLDERRVAA", "growth estimate": "< -0.25"}, {"substance": "MRGTMVRGNNIRG", "growth estimate": "< -0.25"}, {"substance": "CQGHDCTSSFWTQNWVLEQL", "growth estimate": "< -0.25"}, {"substance": "GYGSSIYSDGWQTVTLRVRG", "growth estimate": "< -0.25"}, {"substance": "QTMFRGHSLKRSEAFLAGSP", "growth estimate": "< -0.25"}, {"substance": "TLSGIVTGLF", "growth estimate": "< -0.25"}, {"substance": "FLNLIKGLRPLMGAHTASTT", "growth estimate": "< -0.25"}, {"substance": "DSVTILVKTEE", "growth estimate": "< -0.25"}, {"substance": "LGWQELSIHGLGLKPLLAPS", "growth estimate": "< -0.25"}, {"substance": "SAHVRAVIPGAISWSLIRRP", "growth estimate": -0.246}, {"substance": "YGRLHIRKDVIDRPH", "growth estimate": "< -0.25"}, {"substance": "LAEVARKEEKPAGGSCRGIG", "growth estimate": "< -0.25"}, {"substance": "KGLLIRQARTCVWN", "growth estimate": "< -0.25"}, {"substance": "ILTSGSTLDFNALILDSEST", "growth estimate": "< -0.25"}, {"substance": "GYIGTAGLW", "growth estimate": "< -0.25"}, {"substance": "LLGLVSWWGGMFMTPPRKIT", "growth estimate": "< -0.25"}, {"substance": "PGYGIHLNDQQRGIGVTPSI", "growth estimate": "< -0.25"}, {"substance": "TDTVLLCAKESRFFTR", "growth estimate": -0.193}, {"substance": "FEVGSRVSKYGNLASGGKK", "growth estimate": "< -0.25"}, {"substance": "SCTDRRSFRFNL", "growth estimate": "< -0.25"}, {"substance": "LPAFSPAQRPCRGKTLQHRW", "growth estimate": "< -0.25"}, {"substance": "LRLGSIRRKGSLRP", "growth estimate": "< -0.25"}, {"substance": "FAPD", "growth estimate": "< -0.25"}, {"substance": "KSSAWGKPSPLRKRVRTRRR", "growth estimate": "< -0.25"}, {"substance": "YMPIRRAWSAVIITLLGEEG", "growth estimate": "< -0.25"}, {"substance": "RSGVRG", "growth estimate": "< -0.25"}, {"substance": "LVFHAPRSIARAPWSTSLPS", "growth estimate": 0.0112}, {"substance": "LGCLVVSCPCSQGSGHLARV", "growth estimate": "< -0.25"}, {"substance": "WGRSRDARVRMGR", "growth estimate": "< -0.25"}, {"substance": "KPPSIHMGA", "growth estimate": "< -0.25"}, {"substance": "HRLLTMIIHRSGRHYNVYKI", "growth estimate": "< -0.25"}, {"substance": "VELEAFG", "growth estimate": "< -0.25"}, {"substance": "YVSADVLTKVLQRRVSVHCT", "growth estimate": "< -0.25"}, {"substance": "TGSEPGPV", "growth estimate": "< -0.25"}, {"substance": "SSDLIRPN", "growth estimate": "< -0.25"}, {"substance": "GLAYMEAVTLCAGNVASGFA", "growth estimate": "< -0.25"}, {"substance": "LSSNVIRLQVVQESASFTPC", "growth estimate": "< -0.25"}, {"substance": "HMQFQRVLGPIVTAYWATSA", "growth estimate": "< -0.25"}, {"substance": "YRQRRCF", "growth estimate": "< -0.25"}, {"substance": "PGIIEEGGTVNLGQPNHSSG", "growth estimate": "< -0.25"}, {"substance": "GSAPQSLDLGLFGQRDMRVP", "growth estimate": "< -0.25"}, {"substance": "SIY", "growth estimate": "< -0.25"}, {"substance": "WACIRSVC", "growth estimate": "< -0.25"}, {"substance": "RTKLVRDNMYSLPAHGTS", "growth estimate": "< -0.25"}, {"substance": "PITRAVGTGALQCPCVHIVV", "growth estimate": "< -0.25"}, {"substance": "LHRS", "growth estimate": -0.221}, {"substance": "VYPSVLRRLVHYEFSPATGS", "growth estimate": "< -0.25"}, {"substance": "DGRTLCGQTRCRYLTQPTAH", "growth estimate": "< -0.25"}, {"substance": "LVCTTVSAV", "growth estimate": "< -0.25"}, {"substance": "GVAGAFSPSSDLRHIRAHFG", "growth estimate": "< -0.25"}, {"substance": "FENGLF", "growth estimate": "< -0.25"}, {"substance": "REDR", "growth estimate": "< -0.25"}, {"substance": "GRLPKQV", "growth estimate": "< -0.25"}, {"substance": "YSLKFAPIAERVKGGFSNRG", "growth estimate": "< -0.25"}, {"substance": "LRKQGTLADEKCIFR", "growth estimate": "< -0.25"}, {"substance": "KGVTLPWLVYAWERSPWDLF", "growth estimate": "< -0.25"}, {"substance": "MSWYGSLLRR", "growth estimate": "< -0.25"}, {"substance": "LNHIALRIPLWGIAVDVRQV", "growth estimate": "< -0.25"}, {"substance": "TRGQLHKALMNMMILWGPPF", "growth estimate": "< -0.25"}, {"substance": "RKQKRNSLPSPNRLFVVLKI", "growth estimate": "< -0.25"}, {"substance": "KME", "growth estimate": "< -0.25"}, {"substance": "VGCVVPTSRQSERMRQGGSP", "growth estimate": "< -0.25"}, {"substance": "DSDSSTDGPGALDACLRLTS", "growth estimate": "< -0.25"}, {"substance": "ATMLYLRDDSWTLSYSMLS", "growth estimate": -0.237}, {"substance": "FMYETSYANGAPMSHVHASV", "growth estimate": "< -0.25"}, {"substance": "KKPRRRSHVIVFPGMEGIPA", "growth estimate": -0.221}, {"substance": "ATGSALLRC", "growth estimate": "< -0.25"}, {"substance": "YRPSPISCMVRVDLGAYRDN", "growth estimate": "< -0.25"}, {"substance": "VHTLPRAARRE", "growth estimate": "< -0.25"}, {"substance": "KGRVSRGRNRGPEATWIQLT", "growth estimate": "< -0.25"}, {"substance": "SRTSVLRYGNPHCIVLHVRS", "growth estimate": "< -0.25"}, {"substance": "EDNQDPGVVSVATRKRI", "growth estimate": "< -0.25"}, {"substance": "IISGSASIQTGLSCSWAMMA", "growth estimate": "< -0.25"}, {"substance": "PLSYRAHVGGLASISPFKQV", "growth estimate": "< -0.25"}, {"substance": "PDSRFVGPCGV", "growth estimate": "< -0.25"}, {"substance": "LWPWEVVTKITFL", "growth estimate": "< -0.253"}, {"substance": "GSTFSSRAYCVMTIRKAVSC", "growth estimate": "< -0.25"}, {"substance": "GCGTPV", "growth estimate": "< -0.25"}, {"substance": "GTLGLLGPASCPPLTRCRNG", "growth estimate": "< -0.25"}, {"substance": "NMSAVILFAAGWARLYEVIL", "growth estimate": "< -0.25"}, {"substance": "ETD", "growth estimate": "< -0.25"}, {"substance": "VSRSGFTFTG", "growth estimate": "< -0.25"}, {"substance": "ANEGTPAA", "growth estimate": "< -0.25"}, {"substance": "LQTRTRASGEGQVCQMCTPL", "growth estimate": "< -0.25"}, {"substance": "NANIQERHHKLDRTTPPDRA", "growth estimate": "< -0.25"}, {"substance": "VCTDSREKKRGGPLDPRK", "growth estimate": -0.243}, {"substance": "AFILMRGHKKFPSCADVRSE", "growth estimate": "< -0.25"}, {"substance": "YFLRGSTIGVR", "growth estimate": "< -0.25"}, {"substance": "LAQIGQ", "growth estimate": "< -0.25"}, {"substance": "VWREVCQLSVYPRIHAGTSL", "growth estimate": "< -0.25"}, {"substance": "VRRLPAADRFGNHIESSHEF", "growth estimate": "< -0.25"}, {"substance": "LVFPVHLGLAPDGTMLL", "growth estimate": "< -0.25"}, {"substance": "STS", "growth estimate": "< -0.25"}, {"substance": "IVLKRNHSG", "growth estimate": "< -0.25"}, {"substance": "LGLCSMWSTFTFGIPNFSSH", "growth estimate": "< -0.25"}, {"substance": "GGQAATE", "growth estimate": "< -0.25"}, {"substance": "RVIESA", "growth estimate": "< -0.25"}, {"substance": "TKRGYAFVRQS", "growth estimate": "< -0.25"}, {"substance": "SSQWLGHHPSLPNVVLNDLR", "growth estimate": "< -0.25"}, {"substance": "TGLS", "growth estimate": -0.243}, {"substance": "TDYEFVVAHQGCNRPFRNTH", "growth estimate": "< -0.25"}, {"substance": "VPNPARLDGSAEKAFDDRRT", "growth estimate": "< -0.25"}, {"substance": "LSQFS", "growth estimate": "< -0.25"}, {"substance": "NGDRIWGGCRNSAITVVQGT", "growth estimate": "< -0.25"}, {"substance": "ARETSADRFLPQVRVRGKHH", "growth estimate": "< -0.25"}, {"substance": "PGLQSYSVE", "growth estimate": "< -0.25"}, {"substance": "TDYCLSIPGSPSTEARTISP", "growth estimate": "< -0.25"}, {"substance": "IRRSSRWR", "growth estimate": "< -0.25"}, {"substance": "SDTLVGNGSYSGLWASVTPL", "growth estimate": "< -0.25"}]}]}
